Assay: Extraction recovery of analytes from rat plasma (method validation, sample preparation optimization)
[1] = sample preparation with Acetonitrile
[2] = sample preparation with Ethyl acetate
[3] = sample preparation with Methanol

Compound	Extraction recovery [1] [%]	Extraction recovery [2] [%]	Extraction recovery [3] [%]
O=c1cc(-c2ccccc2)oc2cc(O)cc(O)c12 [Chrysin, chrysin]	75	67	72
COc1c(O[C@@H]2O[C@H](C(=O)O)[C@@H](O)[C@H](O)[C@H]2O)cc(O)c2c(=O)cc(-c3ccccc3)oc12 [Wogonoside, wogonoside]	75	8	75
COc1ccc(-c2cc(=O)c3c(O)cc(O)cc3o2)cc1 [Acacetin, acacetin]	76	81	70
O=C(O)[C@H]1O[C@@H](Oc2cc3oc(-c4ccccc4)cc(=O)c3c(O)c2O)[C@H](O)[C@@H](O)[C@@H]1O [Baicalin, baicalin]	80	2	69
O=c1c(O)c(-c2ccc(O)c(O)c2)oc2cc(O)cc(O)c12 [Quercetin, quercetin]	85	86	20
O=c1cc(-c2ccc(O)cc2)oc2cc(O)c(O)c(O)c12 [Scutellarein, scutellarein]	94	87	19
COc1c(O[C@@H]2O[C@H](C(=O)O)[C@@H](O)[C@H](O)[C@H]2O)cc2oc(-c3ccccc3)cc(=O)c2c1O [Oroxylin A-7-O-β-D-glucuronide, oroxylin A-7-O-β-D-glucuronide]	76	73	56
COc1c(O)cc2oc(-c3ccc(O)cc3)cc(=O)c2c1O [Hispidulin, hispidulin]	78	73	71
COc1c(O)cc2oc(-c3ccccc3)cc(=O)c2c1O [Oroxylin A, oroxylin A]	78	92	65
O=c1cc(-c2ccc(O)cc2)oc2cc(O)cc(O)c12 [Apigenin, apigenin]	79	3	73
O=c1c(O)c(-c2ccc(O)c(O)c2)oc2cc(O[C@@H]3O[C@H](CO)[C@@H](O)[C@H](O)[C@H]3O)cc(O)c12 [Quercetin-7-O-β-D-glucoside, quercetin-7-O-β-D-glucoside]	73	74	15
O=c1cc(-c2ccccc2)oc2cc(O[C@@H]3O[C@H](CO[C@@H]4O[C@H](CO)[C@@H](O)[C@H](O)[C@H]4O)[C@@H](O)[C@H](O)[C@H]3O)c(O)c(O)c12 [Oroxin B, oroxin B]	85	8	69
O=c1cc(-c2ccccc2)oc2cc(O[C@@H]3O[C@H](CO)[C@@H](O)[C@H](O)[C@H]3O)c(O)c(O)c12 [Oroxin A, oroxin A]	83	77	67
O=c1cc(-c2ccccc2)oc2cc(O)c(O)c(O)c12 [Baicalein, baicalein]	92	64	38
O=C(O)[C@H]1O[C@@H](Oc2cc(O)c3c(=O)cc(-c4ccccc4)oc3c2)[C@H](O)[C@@H](O)[C@@H]1O [Chrysin-7-O-β-D-glucuronide, chrysin-7-O-β-D-glucuronide]	80	6	71

Source: article PMC12589998, “Development and validation of a UHPLC-QqQ-MS/MS method for simultaneous determination of fifteen major components from Oroxyli seed extract in rat plasma and its application in the pharmacokinetic study” (Frontiers in Pharmacology, 2025)
